We go through three compounds from patent US10280145B2 (Toray Industries, Inc., priority 2015, dated 2019).

Sequences of proteins named here, by UniProt entry; tags and fusion partners are left off. Residues count along the entry.
UniProt Q08345, 439-913 limits assumed: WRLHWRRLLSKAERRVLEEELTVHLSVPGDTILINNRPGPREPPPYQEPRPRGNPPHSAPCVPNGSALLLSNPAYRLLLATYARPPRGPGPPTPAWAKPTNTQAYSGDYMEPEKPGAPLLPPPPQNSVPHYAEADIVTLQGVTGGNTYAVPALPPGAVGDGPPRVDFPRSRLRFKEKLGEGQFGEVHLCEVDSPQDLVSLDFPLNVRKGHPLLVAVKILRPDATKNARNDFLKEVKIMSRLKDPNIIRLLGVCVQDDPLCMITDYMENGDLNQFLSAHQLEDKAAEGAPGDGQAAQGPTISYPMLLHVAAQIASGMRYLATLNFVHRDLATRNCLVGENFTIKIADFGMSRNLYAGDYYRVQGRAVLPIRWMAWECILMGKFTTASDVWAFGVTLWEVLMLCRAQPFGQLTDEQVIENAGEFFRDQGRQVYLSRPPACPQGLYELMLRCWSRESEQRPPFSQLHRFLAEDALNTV

Structures were worked out from names or drawings and are uncertain.

This assay concerns the target intracellular domain of DDR1 (Homo sapiens, UniProt Q08345). Briefly: Evaluation of DDR1 inhibition activity with HTRF KinEASE-TK kit. Conditions: DDR1 intracellular domain 5 ng/μL, ATP 25 μm/L, TK Substrate-biotin 1000 nmol/L, room temperature, one hour. The protocol: The DDR1 inhibition activity in the compounds of Examples 1 to 80 was evaluated with HTRF® KinEASE-TK kit (Cisbio Bioassays).
Each test substance was dissolved in dimethyl sulfoxide and then used for the evaluation as described below. Moreover, each of test substances and reagents was diluted in the kinase buffer (Cisbio Bioassays) prepared by adding thereto MgCl2, MnCl2, DTT, and the Supplemental Enzyme buffer (Cisbio Bioassays) to concentrations of 5 mmol/L, 0.5 mmol/L, 0.25 mmol/L, and 50 nmol/L, respectively, and then used. Each test substance (in DMSO in a final concentration of 1%), the intracellular domain of DDR1 (in a final concentration of 5 ng/μL) (Carna Biosciences, Inc.), the phosphate donor ATP (in final concentration of 25 μm/L) (Sigma), and the substrate TK Substrate-biotin (in a final concentration of 1000 nmol/L) (Cisbio Bioassays) were added to a 384-well black plate (Corning) and allowed to react at room temperature for one hour. After completion of the reaction, the TK Antibody-Cryptate (Cisbio Bioassays) and the Streptavidin-XL665 (Cisbio Bioassays) were added thereto and allowed to react at room temperature for one hour. […]
The fluorescence intensity in each well was measured using a multi-label counter (Envision, PerkinElmer; excitation wavelength: 320 nm, measurement wavelength: 665 nm and 620 nm) to calculate a ratio (the fluorescence intensity at 665 nm/the fluorescence intensity at 620 nm). The inhibition rate (%) of a test substance at each concentration was calculated based on the formula below: Inhibition rate (%)=([the ratio obtained from the well containing no test substance]−[the ratio from a well containing a test substance])/([the ratio obtained from the well containing no test substance]−[the ratio obtained from the well containing no intracellular domain of DDR1 and no test substance])×100.
The calculated inhibition rates were fitted to a sigmoidal dose-response curve by regression analysis using the Prism 5.04 (GraphPad Software, Inc.) to calculate the IC50 value of the test substance.
(In general: TR-FRET usually uses a lanthanide donor and a delayed reading to cut background.)
Regarding `COc1ccc(OC(F)(F)F)cc1NC(=O)N[C@H]1CC[C@H](Oc2ccncc2)CC1`, the IC50 (as a rule, the concentration that gives 50% inhibition) came out at 204 nM.

Consider `COc1ccc(OC(F)(F)F)cc1NC(=O)N[C@H]1CC[C@H](Oc2ccnc(N3CCOCC3)c2)CC1`, for which the IC50 is 171 nM.

`COc1ccc(OC(F)(F)F)cc1NC(=O)N[C@H]1CC[C@H](COc2cncc(C(N)=O)c2)CC1` had an IC50 of 6.65 nM.
